Results are given in words; binding and its absence hold for the method and conditions named.
What was measured:
[1] = biological target: T1, BARELY ANY MERISTEM 1 (BAM1) ectodomain (Arabidopsis thaliana) (UniProt O49545); assay: condition: 100 µg NIK2-ECD, equimolar BAM1-ECD, with 50 µM CLE9; SEC; analytical gel filtration, Superdex 200 Increase 10/300 GL, 20 mM citrate (pH 5.0), 150 mM NaCl; 100 µg of each NIK-ECD, CLERK-ECD or At5G63710-ECD mixed with equimolar BAM1-ECD, BAM3-ECD or PXY-ECD and 50 µM CLE9, CLE45 or CLE41 peptide, respectively; fractions on Coomassie-stained gels; both purified
T1 sequence: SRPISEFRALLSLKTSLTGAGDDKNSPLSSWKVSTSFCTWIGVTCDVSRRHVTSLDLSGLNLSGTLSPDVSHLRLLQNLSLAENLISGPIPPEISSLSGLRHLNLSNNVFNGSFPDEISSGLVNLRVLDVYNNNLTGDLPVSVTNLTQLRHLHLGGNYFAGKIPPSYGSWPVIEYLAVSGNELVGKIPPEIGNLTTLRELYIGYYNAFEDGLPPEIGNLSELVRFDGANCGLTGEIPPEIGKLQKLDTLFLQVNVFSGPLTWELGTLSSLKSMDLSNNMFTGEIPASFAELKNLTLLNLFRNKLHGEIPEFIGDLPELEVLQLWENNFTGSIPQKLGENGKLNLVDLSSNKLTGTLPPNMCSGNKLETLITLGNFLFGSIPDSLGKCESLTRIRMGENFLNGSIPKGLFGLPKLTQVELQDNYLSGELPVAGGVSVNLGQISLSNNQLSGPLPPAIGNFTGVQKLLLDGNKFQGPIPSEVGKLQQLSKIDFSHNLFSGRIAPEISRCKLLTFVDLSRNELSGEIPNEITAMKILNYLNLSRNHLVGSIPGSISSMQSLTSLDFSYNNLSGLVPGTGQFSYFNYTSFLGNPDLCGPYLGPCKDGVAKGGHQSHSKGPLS

[2] = biological target: T2, PHLOEM … WITH XYLEM (PXY) ectodomain (Arabidopsis thaliana) (UniProt Q9FII5); assay: condition: 100 µg NIK2-ECD, equimolar PXY-ECD, with 50 µM CLE41; SEC; analytical gel filtration, Superdex 200 Increase 10/300 GL, 20 mM citrate (pH 5.0), 150 mM NaCl; 100 µg of each NIK-ECD, CLERK-ECD or At5G63710-ECD mixed with equimolar BAM1-ECD, BAM3-ECD or PXY-ECD and 50 µM CLE9, CLE45 or CLE41 peptide, respectively; fractions on Coomassie-stained gels; both purified
T2 sequence: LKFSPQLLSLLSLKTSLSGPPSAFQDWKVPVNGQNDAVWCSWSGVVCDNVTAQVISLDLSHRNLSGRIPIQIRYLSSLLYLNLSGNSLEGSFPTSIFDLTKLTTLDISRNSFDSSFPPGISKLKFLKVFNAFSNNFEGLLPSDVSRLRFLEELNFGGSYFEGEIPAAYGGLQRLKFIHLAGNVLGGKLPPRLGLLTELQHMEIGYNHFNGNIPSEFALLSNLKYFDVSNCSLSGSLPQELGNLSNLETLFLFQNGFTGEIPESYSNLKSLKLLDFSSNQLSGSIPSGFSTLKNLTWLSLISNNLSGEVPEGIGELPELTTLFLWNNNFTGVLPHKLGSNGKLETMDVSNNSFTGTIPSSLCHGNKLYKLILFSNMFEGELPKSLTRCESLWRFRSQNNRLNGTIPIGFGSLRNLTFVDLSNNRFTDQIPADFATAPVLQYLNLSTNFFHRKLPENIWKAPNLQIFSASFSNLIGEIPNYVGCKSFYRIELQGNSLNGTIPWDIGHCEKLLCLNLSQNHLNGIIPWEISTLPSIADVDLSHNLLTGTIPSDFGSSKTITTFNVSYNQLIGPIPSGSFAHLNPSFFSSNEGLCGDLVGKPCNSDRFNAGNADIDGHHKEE

[3] = biological target: T3, BARELY ANY MERISTEM 3 (BAM3) ectodomain (Arabidopsis thaliana) (UniProt O65440); assay: condition: 100 µg NIK2-ECD, equimolar BAM3-ECD, with 50 µM CLE45; SEC; analytical gel filtration, Superdex 200 Increase 10/300 GL, 20 mM citrate (pH 5.0), 150 mM NaCl; 100 µg of each NIK-ECD, CLERK-ECD or At5G63710-ECD mixed with equimolar BAM1-ECD, BAM3-ECD or PXY-ECD and 50 µM CLE9, CLE45 or CLE41 peptide, respectively; fractions on Coomassie-stained gels; both purified
T3 sequence: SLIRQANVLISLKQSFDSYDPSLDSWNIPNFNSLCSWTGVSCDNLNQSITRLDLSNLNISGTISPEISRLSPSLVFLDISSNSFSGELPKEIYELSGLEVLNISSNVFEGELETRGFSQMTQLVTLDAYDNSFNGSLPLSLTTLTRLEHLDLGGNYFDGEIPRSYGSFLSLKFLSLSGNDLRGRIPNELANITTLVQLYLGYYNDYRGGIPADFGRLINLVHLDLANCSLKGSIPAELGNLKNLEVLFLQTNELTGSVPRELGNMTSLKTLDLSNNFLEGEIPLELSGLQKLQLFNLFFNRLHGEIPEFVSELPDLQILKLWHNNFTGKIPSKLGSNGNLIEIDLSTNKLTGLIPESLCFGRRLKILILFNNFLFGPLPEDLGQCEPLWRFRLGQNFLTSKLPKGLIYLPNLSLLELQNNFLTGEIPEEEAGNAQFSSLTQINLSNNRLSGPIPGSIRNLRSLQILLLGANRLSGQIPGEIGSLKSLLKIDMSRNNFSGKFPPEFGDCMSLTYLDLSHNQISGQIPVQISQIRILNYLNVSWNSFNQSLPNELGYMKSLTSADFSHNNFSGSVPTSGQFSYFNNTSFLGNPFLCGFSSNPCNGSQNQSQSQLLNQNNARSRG

[4] = biological target: T1, BARELY ANY MERISTEM 1 (BAM1) ectodomain (Arabidopsis thaliana); assay: condition: 100 µg NIK1-ECD, equimolar BAM1-ECD, with 50 µM CLE9; SEC; analytical gel filtration, Superdex 200 Increase 10/300 GL, 20 mM citrate (pH 5.0), 150 mM NaCl; 100 µg of each NIK-ECD, CLERK-ECD or At5G63710-ECD mixed with equimolar BAM1-ECD, BAM3-ECD or PXY-ECD and 50 µM CLE9, CLE45 or CLE41 peptide, respectively; fractions on Coomassie-stained gels; both purified
[5] = biological target: T2, PHLOEM … WITH XYLEM (PXY) ectodomain (Arabidopsis thaliana); assay: condition: 100 µg NIK1-ECD, equimolar PXY-ECD, with 50 µM CLE41; SEC; analytical gel filtration, Superdex 200 Increase 10/300 GL, 20 mM citrate (pH 5.0), 150 mM NaCl; 100 µg of each NIK-ECD, CLERK-ECD or At5G63710-ECD mixed with equimolar BAM1-ECD, BAM3-ECD or PXY-ECD and 50 µM CLE9, CLE45 or CLE41 peptide, respectively; fractions on Coomassie-stained gels; both purified
[6] = biological target: T3, BARELY ANY MERISTEM 3 (BAM3) ectodomain (Arabidopsis thaliana); assay: condition: 100 µg NIK1-ECD, equimolar BAM3-ECD, with 50 µM CLE45; SEC; analytical gel filtration, Superdex 200 Increase 10/300 GL, 20 mM citrate (pH 5.0), 150 mM NaCl; 100 µg of each NIK-ECD, CLERK-ECD or At5G63710-ECD mixed with equimolar BAM1-ECD, BAM3-ECD or PXY-ECD and 50 µM CLE9, CLE45 or CLE41 peptide, respectively; fractions on Coomassie-stained gels; both purified

Measured: binding

B1: NSP-… KINASE 2 (NIK2) ectodomain (domain or fragment, UniProt Q8RY65 33-248)
chain: ELTDKGVNFEVVALIGIKSSLTDPHGVLMNWDDTAVDPCSWNMITCSDGFVIRLEAPSQNLSGTLSSSIGNLTNLQTVLLQNNYITGNIPHEIGKLMKLKTLDLSTNNFTGQIPFTLSYSKNLQYLRVNNNSLTGTIPSSLANMTQLTFLDLSYNNLSGPVPRSLAKTFNVMGNSQICPTGTEKDCNGTQPKPMSITLNSSQNKSSDGGTKNRKIA
no binding: [1] | [2] | [3]

B2: NSP-… KINASE 1 (NIK1) ectodomain (domain or fragment, UniProt Q9LFS4 32-248)
chain: LLSPKGVNFEVQALMDIKASLHDPHGVLDNWDRDAVDPCSWTMVTCSSENFVIGLGTPSQNLSGTLSPSITNLTNLRIVLLQNNNIKGKIPAEIGRLTRLETLDLSDNFFHGEIPFSVGYLQSLQYLRLNNNSLSGVFPLSLSNMTQLAFLDLSYNNLSGPVPRFAAKTFSIVGNPLICPTGTEPDCNGTTLIPMSMNLNQTGVPLYAGGSRNHKMA
no binding: [4] | [5] | [6]

Source: paper PMC6001375, “CLERK is a novel receptor kinase required for sensing of root-active CLE peptides in Arabidopsis” (Development (Cambridge, England), 2018)
